The campaign covered roughly 31,000 sequences. About 1,400 (4.5%) were called active.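 How the source made its calls: active means median seed-adjusted z-score above 1 or below -1; inactive means the rest.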 The list shows a part of the results.

The record followed here is PubChem BioAssay AID1347426 (Functional Genomics Laboratory (NCATS/FGL), 2020).

The nature of the assay: Novel Modifiers of Survival Motor Neuron (SMN) Protein: Gene Identification via Genome-wide siRNA Screen.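 Further: luminescence tracks full-length SMN protein made from the SMN2 reporter.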 Conditions: HEK293T SMN2-luciferase reporter, siRNA knockdown, 72 h; actives lie on both sides. Put shortly:
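HEK293T cells stably expressing an SMN2 splicing/cDNA-luciferase reporter were reverse-transfected with a druggable-genome siRNA library and read by luminescence at 72 hours; hits defined by MAD score above 1.0 or below -1.0.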
For orientation: A reporter such as luciferase makes a cellular process visible.
Regarding GGUGAUCACCAAGAUCAAATT against ADCY3, the median seed-adjusted z-score was inactive: -0.294. The result for AAAUUUCCACUAGCGAAAATT against RASL11A reads inactive: -0.294; that for GACUACCUGUUGGACCUCATT against NDOR1, inactive: 0.328; that for GACUUGAACAGUGAACAAATT against RDH14, inactive: 0.0287. GGCUUAUGGUUUCAAUGCUTT against SRI: the median seed-adjusted z-score is inactive: 0.994. With GCUCUGAAUUCAGUGUUUATT against HTR3E, the median seed-adjusted z-score was inactive: -0.717.

GAGAAGAUCUGGAACUCAUTT against CRAT: the median seed-adjusted z-score was active: -1.42.

Regarding CGGUUUCUGAAGACCCAGATT against ZNF358, the median seed-adjusted z-score is inactive: 0.359. The result for ACAUCGUGUGGAUCGCUGATT against ATP6V0D1 reads inactive: -0.242; that for GGUUCUAGCUGUCAACAUUTT against AP1G2, inactive: 0.0657; that for CACCUGCAGCUAUUCAUUUTT against ZNF548, inactive: -0.508.

Consider GGAGAGACGAUAUCGAGGATT against PBRM1, for which the median seed-adjusted z-score was inactive: -0.118.

UGAACCCUCUGUCUCCUUATT against TIMM23: the median seed-adjusted z-score is inactive: 0.899.

With GCGCAUCUAUGAUGACGAUTT against UBA1, the median seed-adjusted z-score is active: 1.34. With GAACUUCACAAGUUCCUCATT against RAB31, the median seed-adjusted z-score is inactive: 0.41. Turning to CCAAUUGAAUUGCUCAGUATT against BCAS2, the median seed-adjusted z-score was inactive: -0.639. With AGUCAUUGAUGGGAUGACATT against PPIC the figure was inactive: 0.0824; with CCAUCAAGAUGUACCCUAUTT against TRIM49, inactive: 0.0648; with GCUGUUAACUGAACCUCUATT against COQ3, inactive: 0.426. CUGUGAGAAUUGUUGCUCUTT against TRIP6: the median seed-adjusted z-score is active: 1.03. The result for CUACUUAAGUGUGAUAAUATT against OCLN reads inactive: 0.232. Turning to GGUGUGGUCCUGUAUGUCATT against TSSK3, the median seed-adjusted z-score was inactive: -0.381. The result for CUCUUCAACUUGUACAUGATT against RASA3 reads inactive: 0.0056; that for GACUAGCAGGGUUCACGAATT against MAGI1, inactive: 0. With GUCUAUUGCUGCCCAAUGATT against PARD3B the figure was inactive: 0.306. The result for CCCUAGAACUGGACAGCAATT against FKBP4 reads inactive: 0.283; that for GCGCAAUAAUGAACGGCAATT against GALNT14, inactive: 0.

Consider GACUCCCUGCUUUCAAUAATT against SALL2, for which the median seed-adjusted z-score was inactive: 0.504.

GCACUCCUGGGUCUUCAUATT against TYSND1: the median seed-adjusted z-score is inactive: -0.0298. As to GGUAAAGCCGAACUCCUAATT against BAHCC1, the median seed-adjusted z-score is inactive: 0. The result for AGAUGGAAGCCUUUCUACATT against HYAL3 reads inactive: 0. With CAAGCACAAUUUAUACCAATT against KLKB1 the figure was inactive: -0.256; with CAGUUCAAGUGACCAUUGATT against CD300LF, inactive: -0.264. With CAACAAUAGGACGAAAUAUTT against MTCH2 the figure was inactive: -0.168.

Regarding GAAUCCGGUUUGGAAUAUATT against POU3F2, the median seed-adjusted z-score is inactive: -0.179. The result for CCGCAAAUGUGGGAUGAAATT against UBE2L3 reads inactive: 0.378. The result for GAUGUUACAUAAAACGAUUTT against PTPN20A reads inactive: 0; that for GCACGCUGCUCAUUUACAATT against PAPLN, inactive: -0.186; that for CAGAGACGGUACAACCCAATT against SLC25A28, inactive: -0.459. With GCCUUGACCUGUCCAACAATT against TLR2 the figure was inactive: -0.0278; with GCACUAUUGUCUCACCUGATT against PRPS1, inactive: 0.034; with GGAAGCAGUUUAUAUCGAUTT against PDE1A, inactive: 0. As for AGGCAGUAGUAGUCACCAATT against PRPS1, the median seed-adjusted z-score was inactive: 0.034. The result for GCCUAAUAAGGUUCGAAAATT against MYCBP2 reads inactive: 0.

As for GAGCCUUCAUGGUAAGGGATT against ITK, the median seed-adjusted z-score is inactive: -0.0372. The result for GAAACCAACUCGACCAGCATT against KCNK4 reads inactive: -0.446; that for GCCCAUUGUUGGUCAACUUTT against NCOA6, inactive: -0.0197; that for UCAACGCGCUCAACAACAATT against AQP5, inactive: -0.116.

GUAUGAGGUUUAUGAUGCATT against LEPR: the median seed-adjusted z-score was inactive: -0.184.

Regarding CCGUAAGACUAAGUAGGAATT against IL1RL1, the median seed-adjusted z-score is inactive: -0.286. With AAACAUUAUUUACCAUUCATT against ZNF439 the figure was inactive: -0.26; with GGUUAGGGCUGAAUGUUUUTT against NOX1, inactive: -0.221. With CCCGGAUUGUUCCUACUGATT against ALG9 the figure was inactive: -0.267. The result for GCAUCAGGCAACCAUUUGATT against PTPRCAP reads inactive: 0.372; that for GGUAGUUGCUGGAAACCAUTT against MPPE1, inactive: -0.409. Consider GCAUGUCAUGGGAUAUGGATT against SLC17A6, for which the median seed-adjusted z-score is inactive: 0.339. The result for CAGAUACAGUUCUCCCUUATT against DTX3 reads inactive: 0.227; that for GCCUUGACGAUACAGCUAATT against KRAS, inactive: -0.0469; that for GCUAUGGAGUGGUGCAGAATT against TSNARE1, inactive: -0.0516.

Regarding GCUCGGCUCUUUGAACGAUTT against IPO8, the median seed-adjusted z-score is inactive: -0.349. For the sequence CUCUAGGAGUGACCACGAATT against LYPLAL1, the median seed-adjusted z-score was inactive: -0.425. The result for CUGCUGACCUCAUACCAGATT against RASGRP4 reads inactive: 0.162.

For AGUACGUCAAGAUCCUGUATT against EPS8L2, the median seed-adjusted z-score is inactive: -0.497. With CGACAAGAAUGAUAAGGCATT against HSP90AB1 the figure was inactive: 0; with GCAGCGUAGUUUUUGCGGATT against DOCK2, inactive: 0.151.

For the sequence CGCUGAAACCCGAUUCCUATT against ANPEP, the median seed-adjusted z-score was inactive: 0.252.

Consider GGAAAAGACAUGUAUCACATT against IRAK1, for which the median seed-adjusted z-score is inactive: -0.232. Take CUAUCUCAUUUGAUCUAUATT against SPRY3: the median seed-adjusted z-score is inactive: -0.126. Consider GAAAUGGAGUUACAUCCAUTT against PIGF, for which the median seed-adjusted z-score is inactive: -0.239. The result for GGCUAUCAGUCUUACUGCATT against DNMT3B reads inactive: 0.0761; that for CAACGUAAGGAUAAGGAUATT against ITSN2, inactive: 0.933; that for GAAUACCCGUUCUAUGUAATT against OPN3, inactive: -0.916.

Regarding CAGCGUAUUUGGUAUGGUUTT against SLC5A8, the median seed-adjusted z-score is inactive: 0.441.

As for GAACAAAAUAGACCUCUUATT against EEFSEC, the median seed-adjusted z-score is inactive: -0.000421. With CCACAUAAAGCAUCGUUAUTT against ABHD1 the figure was inactive: 0.336; with AAACCAGGACGAAAGACAATT against CDX2, inactive: 0.23. With CCUUACUACUGGGUAGGAATT against GPD2 the figure was inactive: 0.0606.

For CCAACGGUCCUGUCCAAAATT against SEC24A, the median seed-adjusted z-score was inactive: 0.038. With GCACCAUGAAGAUCGCUGATT against GMIP the figure was inactive: 0.0686; with AGGUUUCAUGUUCAAGGUATT against BIN1, inactive: 0; with CCUGUACUCUUACUACCGATT against TRPC7, inactive: 0.146. The result for CCAUCAAGCUCUACAAGGATT against TOP3B reads active: -1.11; that for GUUGGAAAAUCUUAAAGAATT against ENOX2, inactive: 0.0233. On to CGCUGCACACCACUCCUAATT against DNASE1L1, for which the median seed-adjusted z-score was inactive: 0.542. The result for CUCGGGCCUUCAUUCAAUATT against USP29 reads inactive: 0.00928; that for CUUUCUAUAUAGCGAAUUATT against AKAP4, inactive: 0.116. The result for GAAGCAAGCUCGUCAUUGATT against ALG1 reads inactive: 0. With CCACAUCUACCAUCACUCUTT against PCDH19 the figure was inactive: 0; with CCAUACUGGUUGAAAAUUGTT against FCAR, inactive: -0.106; with CAAAACUAGUAAUCCUUAUTT against CDK8, active: -1.47. As for GGCUUUGAAUUCAAUCUAUTT against GPR149, the median seed-adjusted z-score is inactive: -0.186.

As for CGAAGAUCCCAACCAAGCATT against EPHA4, the median seed-adjusted z-score was inactive: -0.0739. With CAAAAGAACGAGUAUCGAUTT against ATP8B2 the figure was inactive: -0.268. The result for CAGAUACUAAUAUACAGAATT against DGKG reads inactive: 0.227. With CGAUGAUAGUGGCUCCGGATT against TSC22D4 the figure was inactive: -0.508; with CGCUCCAGGAGAUAUAUAATT against AGPAT3, inactive: 0; with GAUGGAAGAUGGAACGGUUTT against CDC42BPA, inactive: 0.257. Consider CCUUCCUGCGUGUACCAAATT against NR4A3, for which the median seed-adjusted z-score is inactive: -0.205. With GGUAAUAAAUGGGUUGGAATT against PTGR2 the figure was inactive: 0.14; with GAGUGAUAUGAAACGGAAATT against NVL, inactive: 0.701; with CAGGCUUUCUAAUACGACUTT against DCHS2, inactive: 0.

In the case of GCAUUCCCAACUUAUCAUATT against ZFP3, the median seed-adjusted z-score is inactive: 0. The result for CGGCUAUUUUGUCAGCAAATT against ABR reads inactive: 0.314. The result for CGUCCUGUCUUGUAGUCUUTT against TRIM65 reads inactive: -0.599. With CCGUCAUUCGUGCCCAUUATT against ST8SIA3 the figure was inactive: -0.848. GAGUCGAACUUUACUGUCUTT against MLL2: the median seed-adjusted z-score is active: -2.11.

Regarding GCUCUACUAUUUCUACGAUTT against SPPL2B, the median seed-adjusted z-score is inactive: 0.0324. For the sequence AGUGAGUGCUUAGGGCAAATT against ADRB3, the median seed-adjusted z-score was inactive: 0.17.
